This assay in a line: qHTS Assay for Lipid Storage Modulators in Drosophila S3 Cells.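 On cell number change: cells counted by Cell Tracker Red CMTPX staining in the red channel.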 The note with it: BODIPY lipid droplet fluorescence, 18-24 h; for cell number change: measured here: cell count max response, cells fed with added oleic acid. Put shortly:
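Laser-scanning cytometry quantifies lipid droplet accumulation (500–530 nm total intensity; droplet/cell object ratio) in oleic acid-fed (400 uM added) Drosophila S3 cells treated with a concentration series. 20 uM Triacsin C defined 100% inhibition.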
On the technique in general: Quantitative high-throughput screening tests each substance at several concentrations.

Setting [1] is: measured here: lipid fluorescence (Fed channel) AC50, cells fed with added oleic acid.
Where [2] appears, read: measured here: cell number channel AC50, cells fed with added oleic acid.

The other results are listed elsewhere or left out. These are further read-outs of the screen, such as a control signal, another cell line or another target. No call is given for them. Most of these compounds were active or inconclusive in the main read-out, so they are no random draw. Potencies come from curve fits of mixed quality, noted in brackets.

For the molecule `COC(=O)c1cc(=O)n(CCc2ccc(OC)c(OC)c2)c(=Nc2ccc(F)c(Cl)c2)s1`, the cell number change is -26.5%. Further, the concentration at half-maximal activity (AC50) (commonly the midpoint of the concentration-response curve, whichever way the signal moves) under setting [1] was 16.4 µM [falling, partial curve].

`O=S(=O)(c1cccc(C(F)(F)F)c1)N1CCN(c2ccccc2)CC1`: the cell number change amounted to 24.4%. The concentration at half-maximal activity (AC50) under setting [1] was 29.1 µM [rising, single point].

As for `CCN(CC(=O)Nc1ccc(N2CCOCC2)cc1)C(=O)c1ccc(C(F)(F)F)cc1`, the AC50 under setting [2] is 0.82 µM [falling, full curve].

On to `O=C(NCCc1ccc(Cl)cc1)c1ccc2nc(N3CCOCC3)sc2c1`, for which the cell number change was -10.2%.

As for `COc1ccc(CNC(=O)/C=C/c2cc([N+](=O)[O-])ccc2OC(F)F)cc1OC`, the cell number change is 9.18%. The concentration at half-maximal activity (AC50) under setting [1] is 2.31 µM [falling, partial curve].

Regarding `COc1ccc(Cl)cc1NC(=O)CN1CCC(n2nnc3cc(C)ccc32)CC1`, the cell number change stood at 3.52%.

As for `Cc1cccc(-c2nc(-c3ccncc3)no2)c1`, the cell number change is -3.57%. Besides, under setting [1], the AC50 is 5.8 µM [rising, partial curve].

Turning to `COC(=O)Nc1ccc(S(=O)(=O)N2CCCC(C(=O)N3CCN(C)CC3)C2)cc1` (stereo unspecified), the cell number change turned out to be 21.6%. Further, the AC50 under setting [1] was 29.1 µM [rising, single point].

As to `CC(C)OC(=O)CC(=O)CSc1nc2c(cc1C#N)CCC2`, the cell number change is -1.7%. Also, under setting [2], the half-maximal activity concentration (AC50) is 0.00461 µM [falling, full curve, poor fit]. Further, the AC50 under setting [1] was 7.31 µM [rising, partial curve].

With `COC(=O)NC1c2ccccc2Oc2ccc(C)cc21` (stereo unspecified), the cell number change amounted to 14.2%.

Turning to `CC(C)Cc1nc2oc3c(Cl)ncnc3c2c2c1CCC2`, the cell number change is 47.8%. The half-maximal activity concentration (AC50) under setting [2] was 0.206 µM [rising, partial curve]. For the same molecule, under setting [1], the AC50 is 6.51 µM [falling, single point].

Consider `O=C(NCCN1CCCC1=O)Nc1ccccc1`, for which the cell number change was -10.1%.

Turning to `CCNC(=S)NCCN1CCCCC1`, the cell number change was found to be 1.38%. For the same molecule, the AC50 under setting [1] is 0.58 µM [falling, full curve].

In the case of `CCC(O)(c1ccccc1)C(CN1CCOCC1)c1ccccc1` (stereo unspecified), the cell number change is -11.1%.

As to `CC(=O)Nc1ccc(S(=O)(=O)N/N=C/c2cccnc2)cc1`, the cell number change stood at 12.2%.

Turning to `CNc1nc(N/N=C/c2ccc([N+](=O)[O-])cc2)nc(Nc2ccccc2)n1`, the cell number change came out at 7.72%. Besides, under setting [1], the concentration at half-maximal activity (AC50) is 20.6 µM [falling, partial curve, poor fit].

`COc1cc(C(=O)N2CCN(C(=O)c3ccccc3)CC2)cc(OC)c1OC`: the cell number change is 156%. Under setting [2], the concentration at half-maximal activity (AC50) is 18.4 µM [rising, partial curve].

For the molecule `Cc1ccc(NC(=S)NN2CCN(C)CC2)c(C)c1`, the cell number change was found to be 2.9%. The AC50 under setting [1] was 25.9 µM [rising, single point].

For `CCOC(=O)c1c(NC(=S)NC(=O)c2ccco2)sc2c1CCCC2`, the cell number change stood at 1.93%.

As for `Cc1ccnc(NS(=O)(=O)c2cc(C(F)(F)F)ccc2Cl)c1`, the cell number change turned out to be 32.4%. Also, the concentration at half-maximal activity (AC50) under setting [2] was 0.58 µM [falling, single point]. In addition, under setting [1], the AC50 was 29.1 µM [rising, single point].

Regarding `CCn1c(C(C)NC(=O)c2cccs2)nc2ccccc21` (stereo unspecified), the cell number change was determined as 80.2%. Moreover, the AC50 under setting [2] is 25.9 µM [rising, single point].

Regarding `CN(C1CCCCC1)S(=O)(=O)CCNC(=O)c1ccccc1`, the cell number change was determined as 13%. For the same molecule, the concentration at half-maximal activity (AC50) under setting [1] is 0.13 µM [falling, full curve, poor fit].

As to `COC(=O)C1CCN(C(=O)CSc2nc3ccc(OC)cc3[nH]2)CC1`, the cell number change worked out at 37.6%. The half-maximal activity concentration (AC50) under setting [2] is 0.146 µM [rising, full curve, poor fit]. Moreover, under setting [1], the AC50 was 0.291 µM [rising, partial curve, poor fit].

For the molecule `Cc1cc2nc(C)n(CCCNC(=O)Nc3ccc(F)cc3)c2cc1C`, the AC50 under setting [1] is 0.326 µM [rising, partial curve, poor fit].

As for `CC(=O)N1CCc2cc(S(=O)(=O)NC(Cc3ccccc3)C(=O)Nc3cc(C)ccn3)ccc21` (stereo unspecified), the cell number change is -1.46%.

Turning to `CCOC(=O)C(N)CSC1CC(=O)N(c2ccc(OC)cc2)C1=O` (stereo unspecified), under setting [1], the AC50 was 2.31 µM [falling, partial curve].

As for `COc1ccc(C2=NS(=O)(=O)N(C)C(C(=O)NC3CCCC3)=C2)cc1`, the cell number change was determined as 18.2%.

On to `CCCCC(CC)C(=O)Nc1cc(C(=O)NCc2ccc(C)cc2)ccc1N1CCC2(CC1)CC(c1cccc(Br)c1)=NO2` (stereo unspecified), for which the cell number change came out at 23.1%. Also, the AC50 under setting [1] was 2.06 µM [rising, partial curve, poor fit].

As to `Cc1cccc(N2CCC(N3CCN(C4CCCCC4)C(CCO)C3)CC2)c1C` (stereo unspecified), the cell number change was -22.5%.

On to `O=C(COC(=O)c1ccc(Cl)nc1)Nc1cccc(S(=O)(=O)N2CCCCC2)c1`, for which the cell number change was -27.4%. Moreover, the AC50 under setting [2] was 6.51 µM [falling, single point]. In addition, the concentration at half-maximal activity (AC50) under setting [1] was 3.66 µM [falling, partial curve, poor fit].

For `CC(=O)c1cc2ccccc2oc1=O`, the cell number change amounted to 9.89%. For the same molecule, under setting [1], the AC50 was 0.116 µM [rising, full curve, poor fit].

For `CN(C)Cc1cnc2ccc(Cl)cn12`, the cell number change was found to be 16.6%. The AC50 under setting [1] was 29.1 µM [rising, single point].

`COc1cc(C(=O)NC(=S)Nc2ccc(Cl)c(C(=O)O)c2)cc(OC)c1OC`: the cell number change turned out to be 36.2%. Moreover, under setting [2], the half-maximal activity concentration (AC50) is 29.1 µM [rising, single point].

For the molecule `COc1ccccc1C(=O)N/C(=C/c1ccc(Br)cc1)C(=O)N1CCCC1`, the cell number change came to 16.6%.

Regarding `O=C(COC(=O)c1cc([N+](=O)[O-])ccc1N1CCOCC1)Nc1c(Cl)cccc1Cl`, the AC50 under setting [2] is 6.51 µM [rising, single point] and the AC50 under setting [1] was 14.6 µM [rising, partial curve].

Regarding `O=C(O)C1CC(=O)N(Cc2ccccc2)C1` (stereo unspecified), the cell number change is -4.15%.

Turning to `COc1cccc(/C=C2\SC(=O)N(CCC(=O)NCCCn3ccnc3)C2=O)c1`, the cell number change is -18.5%. For the same molecule, the AC50 under setting [1] is 6.51 µM [falling, single point].

In the case of `Cc1cccc(OCC(=O)Nc2ccncc2)c1C`, the cell number change is -20.1%. Also, the AC50 under setting [2] is 2.06 µM [falling, single point]. Moreover, the concentration at half-maximal activity (AC50) under setting [1] is 0.651 µM [falling, partial curve, poor fit].

Consider `CC(=O)c1ccc(NC(=O)CCCC(=O)c2ccccc2)cc1`, for which the cell number change was found to be 9.69%. In addition, under setting [1], the concentration at half-maximal activity (AC50) was 14.6 µM [rising, partial curve, poor fit].

In the case of `Cc1cc(C)c(S(=O)(=O)Nc2nccs2)c(C)c1`, the cell number change stood at 15.2%.

Regarding `COCCNC(=O)CN(C(=O)CCC(=O)Nc1nccs1)c1ccccc1OC`, the cell number change was 63.8%. The AC50 under setting [2] is 23.1 µM [rising, partial curve]. Under setting [1], the AC50 was 4.11 µM [rising, single point].

On to `COC(=O)C(Cc1c[nH]c2ccccc12)NC(=O)c1cc(-c2ccc(OC)c(OC)c2)oc1C` (stereo unspecified), for which the cell number change is -23.2%. Further, the AC50 under setting [1] is 29.1 µM [falling, single point].

Regarding `Cc1nn(C2CCS(=O)(=O)C2)c(Cl)c1/C=C/C(=O)OCC(N)=O` (stereo unspecified), the cell number change is -4.79%. Further, under setting [1], the concentration at half-maximal activity (AC50) was 0.92 µM [falling, full curve].

As to `CCc1ccnc(NC(=O)NS(=O)(=O)c2ccc(C)cc2)c1`, the cell number change stood at 17.8%. For the same molecule, the half-maximal activity concentration (AC50) under setting [1] was 4.11 µM [falling, partial curve, poor fit].

For the molecule `CCn1c(COc2ccccc2OC)nnc1SCC(=O)NC1CCCC1`, the cell number change is -5.41%. Also, the concentration at half-maximal activity (AC50) under setting [1] is 0.13 µM [falling, full curve, poor fit].

For `CC1CCC2(CC1)NC(=O)N(Cc1nnc(-c3cccs3)o1)C2=O` (stereo unspecified), the cell number change was 78.4%. In addition, the AC50 under setting [2] is 18.4 µM [rising, single point].

On to `CCCCC1=CC2=C(c3ccco3)C(=O)C(C)(OC(=O)c3ccc(OC)cc3)C(=O)C2=CN1c1ccc(OC)cc1` (stereo unspecified), for which the cell number change is -55.5%. Further, the concentration at half-maximal activity (AC50) under setting [2] was 18.4 µM [falling, single point]. Further, under setting [1], the AC50 was 18.4 µM [falling, single point].

As to `COCCn1c(SCC(=O)Nc2ccc(NC(C)=O)cc2)nc2ccccc2c1=O`, the cell number change came out at 184%. For the same molecule, under setting [2], the AC50 is 29.1 µM [rising, partial curve]. Besides, under setting [1], the AC50 is 29.1 µM [rising, partial curve].

In the case of `COc1ccc(Cc2nc(C)cc(Cl)n2)cc1[N+](=O)[O-]`, the cell number change was -11%.

Take `CCc1nnc(NC(=O)c2ccc(N3C(=O)CCC3=O)cc2)s1`: under setting [2], the AC50 was 6.51 µM [falling, single point].

On to `CCCCC1CCC(C(=O)Nc2ccccc2)CC1` (stereo unspecified), for which the cell number change was -13.1%. Moreover, the AC50 under setting [1] was 0.291 µM [falling, full curve].

As for `CC(Cc1cccs1)NC(=S)Nc1ccccc1` (stereo unspecified), the cell number change is -39.7%. The AC50 under setting [2] was 32.6 µM [falling, single point]. Also, under setting [1], the AC50 is 4.61 µM [rising, single point].

As to `Cc1cccc(NS(=O)(=O)c2nnc(NC(=O)C3CCCCC3)s2)c1`, the cell number change is -15.6%.

Consider `COc1cccc(C2=NN(C(=O)c3ccc(C)o3)C(O)(C(F)(F)F)C2)c1` (stereo unspecified), for which the cell number change was -13.9%. Also, the concentration at half-maximal activity (AC50) under setting [1] was 20.6 µM [falling, single point].

Turning to `COc1ccc(-n2cnnc2SCC(=O)N(C)C2CCS(=O)(=O)C2)cc1` (stereo unspecified), the cell number change was 18.1%. The concentration at half-maximal activity (AC50) under setting [1] was 16.4 µM [rising, single point].

As to `O=S(=O)(NC(=NC1CCCC1)C(F)(F)F)c1ccccc1`, the cell number change was -1.56%. Also, the half-maximal activity concentration (AC50) under setting [1] is 0.731 µM [rising, full curve].

As to `COc1cc(NS(=O)(=O)c2ccc(NC(C)=O)cc2)nc(OC)n1`, the cell number change is -63.1%. Also, the AC50 under setting [2] was 4.11 µM [falling, full curve]. In addition, under setting [1], the AC50 was 4.11 µM [falling, full curve].

With `Cc1nc2c(C)cccn2c(=O)c1NC(=O)c1ccc2c(c1)OCO2`, the cell number change is 7.71%. Further, the AC50 under setting [1] was 6.51 µM [falling, single point].

`O=C(NC1CCCc2c1cnn2-c1ccccc1F)c1ccccn1` (stereo unspecified): the AC50 is 0.116 µM [falling, full curve, poor fit] under setting [2] and 0.259 µM [falling, full curve, poor fit] under setting [1].

On to `COc1ccccc1NC(=S)NNC(=O)c1ccccc1Br`, for which the AC50 under setting [1] was 2.06 µM [rising, partial curve].

As for `CCC(C(=O)NCc1ccco1)n1nc(C)c2c(C)n(-c3ccccc3)nc2c1=O` (stereo unspecified), the cell number change was determined as 4.42%. The AC50 under setting [1] was 2.06 µM [rising, partial curve].

Turning to `Cc1cc(C)nc(N2N=C(CSc3ccc(Cl)cc3)CC2=O)n1`, the cell number change came out at 26.3%. For the same molecule, under setting [2], the AC50 was 1.64 µM [rising, full curve, poor fit]. Also, the concentration at half-maximal activity (AC50) under setting [1] was 1.46 µM [rising, full curve, poor fit].

These data come from PubChem BioAssay AID2685 (National Center for Advancing Translational Sciences (NCATS), 2010).
